Assay results reported in publication PMC4586916.
Results are given in words; binding and its absence hold for the method and conditions named. Binding seen in cells or lysates may run through a third protein. These calls come from enrichment with a bait or labelling near it, and not all partners need be listed.

By UniProt entry, the sequences of proteins in these tests, tags left out. Where a name states a change or a piece, a line headed by the entry shows the natural chain unless it says otherwise. Chains listed by the source or under a name are the forms on record and can include a tag or linker. Residues count along the entry.
TIP60−YFP (Q92993, form named): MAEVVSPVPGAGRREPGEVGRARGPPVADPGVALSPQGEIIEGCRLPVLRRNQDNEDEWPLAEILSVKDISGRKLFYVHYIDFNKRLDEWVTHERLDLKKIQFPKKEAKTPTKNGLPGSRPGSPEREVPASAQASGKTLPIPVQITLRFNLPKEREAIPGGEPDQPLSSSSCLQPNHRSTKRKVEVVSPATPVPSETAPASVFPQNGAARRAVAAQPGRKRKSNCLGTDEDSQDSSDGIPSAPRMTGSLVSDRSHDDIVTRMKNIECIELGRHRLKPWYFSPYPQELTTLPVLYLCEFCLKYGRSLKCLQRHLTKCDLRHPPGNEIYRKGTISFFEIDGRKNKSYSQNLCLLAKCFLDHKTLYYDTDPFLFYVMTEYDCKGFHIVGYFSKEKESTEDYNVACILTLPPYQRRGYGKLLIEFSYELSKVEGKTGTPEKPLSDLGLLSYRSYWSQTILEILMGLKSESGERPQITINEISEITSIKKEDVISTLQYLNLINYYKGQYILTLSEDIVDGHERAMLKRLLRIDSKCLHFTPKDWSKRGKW
UniProt O00571: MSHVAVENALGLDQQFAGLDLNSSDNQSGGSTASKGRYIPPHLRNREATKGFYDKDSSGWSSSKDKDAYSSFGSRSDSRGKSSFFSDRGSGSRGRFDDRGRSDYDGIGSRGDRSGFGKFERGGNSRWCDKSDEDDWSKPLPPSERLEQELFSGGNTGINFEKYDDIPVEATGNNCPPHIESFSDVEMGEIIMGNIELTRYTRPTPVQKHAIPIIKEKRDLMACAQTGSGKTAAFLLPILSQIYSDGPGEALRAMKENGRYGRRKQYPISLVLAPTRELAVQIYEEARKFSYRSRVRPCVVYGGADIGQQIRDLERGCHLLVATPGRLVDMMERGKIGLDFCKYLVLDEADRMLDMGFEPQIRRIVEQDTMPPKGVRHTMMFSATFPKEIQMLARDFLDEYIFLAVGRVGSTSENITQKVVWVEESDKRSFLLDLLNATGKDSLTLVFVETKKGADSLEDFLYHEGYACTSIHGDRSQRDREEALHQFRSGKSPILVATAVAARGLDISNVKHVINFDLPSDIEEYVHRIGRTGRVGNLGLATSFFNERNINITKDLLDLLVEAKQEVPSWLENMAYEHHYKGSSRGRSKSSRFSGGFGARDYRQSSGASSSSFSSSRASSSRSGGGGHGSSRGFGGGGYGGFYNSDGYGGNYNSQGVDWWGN
UniProt Q92841: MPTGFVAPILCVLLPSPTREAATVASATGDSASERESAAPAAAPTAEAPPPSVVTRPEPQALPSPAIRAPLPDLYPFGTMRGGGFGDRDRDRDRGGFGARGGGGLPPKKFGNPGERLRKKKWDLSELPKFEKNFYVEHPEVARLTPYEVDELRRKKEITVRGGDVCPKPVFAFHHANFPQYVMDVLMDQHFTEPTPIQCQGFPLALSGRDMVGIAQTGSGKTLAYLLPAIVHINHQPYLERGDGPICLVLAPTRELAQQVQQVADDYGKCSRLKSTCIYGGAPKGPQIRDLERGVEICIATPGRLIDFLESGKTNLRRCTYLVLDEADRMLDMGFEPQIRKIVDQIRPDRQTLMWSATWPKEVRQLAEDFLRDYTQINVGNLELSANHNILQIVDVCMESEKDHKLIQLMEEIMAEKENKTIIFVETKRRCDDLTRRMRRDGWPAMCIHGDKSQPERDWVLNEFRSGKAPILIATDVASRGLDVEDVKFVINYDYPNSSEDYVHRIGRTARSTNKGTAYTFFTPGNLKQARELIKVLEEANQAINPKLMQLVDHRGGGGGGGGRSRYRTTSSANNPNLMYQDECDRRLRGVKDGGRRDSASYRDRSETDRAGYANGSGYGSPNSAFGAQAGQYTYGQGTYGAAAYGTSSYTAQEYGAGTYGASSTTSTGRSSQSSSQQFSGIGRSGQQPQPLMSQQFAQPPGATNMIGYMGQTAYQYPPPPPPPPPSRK
UniProt Q9NR30: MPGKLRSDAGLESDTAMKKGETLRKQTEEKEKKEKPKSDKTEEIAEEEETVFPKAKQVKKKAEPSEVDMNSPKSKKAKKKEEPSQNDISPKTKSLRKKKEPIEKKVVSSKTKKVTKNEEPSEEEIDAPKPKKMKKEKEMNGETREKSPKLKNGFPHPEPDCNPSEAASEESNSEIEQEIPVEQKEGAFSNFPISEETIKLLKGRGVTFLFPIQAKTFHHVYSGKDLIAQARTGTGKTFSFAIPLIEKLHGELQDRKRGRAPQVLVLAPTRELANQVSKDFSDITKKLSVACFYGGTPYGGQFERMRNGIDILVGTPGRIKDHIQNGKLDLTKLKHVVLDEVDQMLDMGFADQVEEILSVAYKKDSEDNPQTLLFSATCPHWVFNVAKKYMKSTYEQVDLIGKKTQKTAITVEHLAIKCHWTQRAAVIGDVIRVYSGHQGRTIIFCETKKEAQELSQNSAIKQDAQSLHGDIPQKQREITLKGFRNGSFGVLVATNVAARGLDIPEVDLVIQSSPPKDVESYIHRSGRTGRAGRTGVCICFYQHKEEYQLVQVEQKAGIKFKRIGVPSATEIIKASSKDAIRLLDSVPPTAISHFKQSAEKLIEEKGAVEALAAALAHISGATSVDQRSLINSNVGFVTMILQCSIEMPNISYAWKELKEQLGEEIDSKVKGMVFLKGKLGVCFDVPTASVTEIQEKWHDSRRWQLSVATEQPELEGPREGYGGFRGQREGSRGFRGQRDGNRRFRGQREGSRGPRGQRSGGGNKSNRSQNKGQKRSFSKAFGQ
UniProt Q9UPP1, residues 37-1060: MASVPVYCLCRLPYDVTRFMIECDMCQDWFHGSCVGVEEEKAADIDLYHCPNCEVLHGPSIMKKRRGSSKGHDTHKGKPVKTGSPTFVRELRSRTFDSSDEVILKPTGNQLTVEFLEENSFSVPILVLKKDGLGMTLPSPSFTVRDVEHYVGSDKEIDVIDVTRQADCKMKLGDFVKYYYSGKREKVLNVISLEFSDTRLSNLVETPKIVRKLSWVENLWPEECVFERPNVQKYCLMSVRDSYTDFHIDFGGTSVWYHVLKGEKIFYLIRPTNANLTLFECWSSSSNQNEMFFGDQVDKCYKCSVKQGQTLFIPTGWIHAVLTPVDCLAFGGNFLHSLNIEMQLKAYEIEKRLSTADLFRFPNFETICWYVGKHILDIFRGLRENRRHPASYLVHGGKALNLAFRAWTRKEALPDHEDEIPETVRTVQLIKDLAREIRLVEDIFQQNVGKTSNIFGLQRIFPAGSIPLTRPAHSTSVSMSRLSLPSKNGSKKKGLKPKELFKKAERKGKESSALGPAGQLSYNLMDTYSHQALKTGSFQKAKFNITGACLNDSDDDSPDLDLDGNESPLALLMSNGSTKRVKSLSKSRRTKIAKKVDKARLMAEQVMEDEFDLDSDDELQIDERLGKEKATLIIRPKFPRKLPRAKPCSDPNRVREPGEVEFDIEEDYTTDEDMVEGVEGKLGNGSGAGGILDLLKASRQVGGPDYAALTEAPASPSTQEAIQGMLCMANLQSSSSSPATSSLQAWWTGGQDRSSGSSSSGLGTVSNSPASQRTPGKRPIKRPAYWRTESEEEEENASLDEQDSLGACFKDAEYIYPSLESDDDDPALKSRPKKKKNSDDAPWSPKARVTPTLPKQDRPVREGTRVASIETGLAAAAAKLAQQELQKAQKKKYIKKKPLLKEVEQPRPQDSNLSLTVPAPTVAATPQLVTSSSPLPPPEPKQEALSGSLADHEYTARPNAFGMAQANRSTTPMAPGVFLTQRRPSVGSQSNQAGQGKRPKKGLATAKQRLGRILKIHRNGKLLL

B1: NONO (non-POU domain containing, octamer-binding) (protein, UniProt Q15233 1-471)
chain: MQSNKTFNLEKQNHTPRKHHQHHHQQQHHQQQQQQPPPPPIPANGQQASSQNEGLTIDLKNFRKPGEKTFTQRSRLFVGNLPPDITEEEMRKLFEKYGKAGEVFIHKDKGFGFIRLETRTLAEIAKVELDNMPLRGKQLRVRFACHSASLTVRNLPQYVSNELLEEAFSVFGQVERAVVIVDDRGRPSGKGIVEFSGKPAARKALDRCSEGSFLLTTFPRPVTVEPMDQLDDEEGLPEKLVIKNQQFHKEREQPPRFAQPGSFEYEYAMRWKALIEMEKQQQDQVDRNIKEAREKLEMEMEAARHEHQVMLMRQDLMRRQEELRRMEELHNQEVQKRKQLELRQEEERRRREEEMRRQQEEMMRRQQEGFKGTFPDAREQEIRMGQMAMGGAMGINNRGAMPPAPVPAGTPAPPGPATMMPDGTLGLTPPTTERFGQAATMEGIGAIGGTPPAFNRAAPGAEFAPNKRRRY

Target: TIP60−YFP (UniProt Q92993)
Assay: affinity purification with mass spectrometry; anti-GFP immunoprecipitation of nuclear extracts from Hek293T cells transfected with PHF8−YFP or TIP60−YFP, pre-cleared with rabbit IgG; gel bands present in the PHF8/TIP60 IP but not in the control YFP IP were excised; nanoLC-MS/MS, IPI human database

binding, binds:
ATP-dependent RNA helicase DDX3X (from UniProt O00571 1-662)
ATP-dependent RNA helicase DDX17 (from UniProt Q92841 1-729)
ATP-dependent RNA helicase DDX21 (from UniProt Q9NR30 1-783)
B1

Target: PHF8−YFP (human) (UniProt Q9UPP1)
Assay: as above

binding, binds:
ATP-dependent RNA helicase DDX3X (from UniProt O00571 1-662)
ATP-dependent RNA helicase DDX17 (from UniProt Q92841 1-729)
ATP-dependent RNA helicase DDX21 (from UniProt Q9NR30 1-783)
B1
